The values that follow come from article doi:10.1101/585497.

Chains of the proteins cited; added tags and fusions are not shown.
UniProt P25963: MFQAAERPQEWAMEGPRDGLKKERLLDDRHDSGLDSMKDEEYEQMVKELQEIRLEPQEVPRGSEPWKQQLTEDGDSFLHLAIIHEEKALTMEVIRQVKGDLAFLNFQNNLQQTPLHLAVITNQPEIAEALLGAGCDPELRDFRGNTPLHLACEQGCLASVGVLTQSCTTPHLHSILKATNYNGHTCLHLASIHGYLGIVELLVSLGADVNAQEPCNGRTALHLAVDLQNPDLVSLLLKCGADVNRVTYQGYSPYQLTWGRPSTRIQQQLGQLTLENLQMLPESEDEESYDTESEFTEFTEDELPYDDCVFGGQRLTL
UniProt P49790: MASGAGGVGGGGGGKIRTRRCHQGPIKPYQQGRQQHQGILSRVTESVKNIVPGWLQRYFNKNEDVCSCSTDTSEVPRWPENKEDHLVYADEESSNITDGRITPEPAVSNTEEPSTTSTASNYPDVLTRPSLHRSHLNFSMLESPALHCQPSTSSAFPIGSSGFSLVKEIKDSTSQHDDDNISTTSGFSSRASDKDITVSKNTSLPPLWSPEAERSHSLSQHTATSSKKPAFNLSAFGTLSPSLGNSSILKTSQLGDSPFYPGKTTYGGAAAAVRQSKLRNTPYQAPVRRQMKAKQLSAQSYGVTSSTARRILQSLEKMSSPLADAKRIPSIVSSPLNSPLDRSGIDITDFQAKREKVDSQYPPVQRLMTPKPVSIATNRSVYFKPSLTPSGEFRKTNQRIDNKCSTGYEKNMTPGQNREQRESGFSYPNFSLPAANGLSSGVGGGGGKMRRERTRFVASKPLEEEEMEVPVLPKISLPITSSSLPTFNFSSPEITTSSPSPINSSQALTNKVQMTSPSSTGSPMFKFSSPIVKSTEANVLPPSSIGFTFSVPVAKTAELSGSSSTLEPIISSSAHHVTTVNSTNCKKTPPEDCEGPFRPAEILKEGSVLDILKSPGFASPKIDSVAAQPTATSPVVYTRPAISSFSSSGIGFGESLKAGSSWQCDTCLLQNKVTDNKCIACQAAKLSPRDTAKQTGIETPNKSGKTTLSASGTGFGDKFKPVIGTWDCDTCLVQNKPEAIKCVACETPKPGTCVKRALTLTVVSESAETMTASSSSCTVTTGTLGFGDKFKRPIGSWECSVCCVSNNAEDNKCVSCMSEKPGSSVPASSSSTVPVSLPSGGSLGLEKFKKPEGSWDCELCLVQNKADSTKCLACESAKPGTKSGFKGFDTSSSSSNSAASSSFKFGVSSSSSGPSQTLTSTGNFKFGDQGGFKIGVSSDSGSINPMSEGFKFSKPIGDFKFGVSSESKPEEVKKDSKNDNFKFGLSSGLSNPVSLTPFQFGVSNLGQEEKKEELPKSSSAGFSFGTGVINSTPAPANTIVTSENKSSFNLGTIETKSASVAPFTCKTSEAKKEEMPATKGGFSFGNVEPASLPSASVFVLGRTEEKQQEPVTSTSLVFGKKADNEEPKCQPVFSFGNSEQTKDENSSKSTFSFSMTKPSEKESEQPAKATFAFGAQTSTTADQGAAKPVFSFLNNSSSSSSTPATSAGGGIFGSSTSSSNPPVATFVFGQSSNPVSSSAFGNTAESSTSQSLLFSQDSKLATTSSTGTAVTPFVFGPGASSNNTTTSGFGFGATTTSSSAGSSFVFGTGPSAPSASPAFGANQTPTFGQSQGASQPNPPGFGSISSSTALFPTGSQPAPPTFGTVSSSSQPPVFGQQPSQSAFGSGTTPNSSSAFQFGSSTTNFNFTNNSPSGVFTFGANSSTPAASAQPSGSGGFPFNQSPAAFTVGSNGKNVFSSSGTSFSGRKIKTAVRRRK

The target of assay [1] is N-terminally mEmerald (GFP)-tagged IκBα (UniProt P25963). As to the kind of experiment: co-IP.
In assay [2] the target is endogenous IκBα (HepG2) (human (endogenous in HepG2)) (UniProt P25963). As to the kind of experiment: co-IP.

Results are given in words; binding and its absence hold for the method and conditions named. In cells and extracts the contact can be indirect. Some results given as binding are weak or reduced against the parent protein; the word gives no strength.

Take “Nup153 (endogenous, HEK293T) (from UniProt P49790 1-1475)”: the binding result in assay [1] is “binds”.
Regarding “Nup153 (endogenous, HepG2) (from UniProt P49790 1-1475)”, in assay [2], the binding entry is “binds”.
